PubChem BioAssay AID720505, Drosophila RNAi Screening Center | 2013

Test: 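Knock-downs that reduce calcium influx once internal stores are emptied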 (primary screen)
Cells: Drosophila S2R+ cells
Reagent: long dsRNA against Drosophila genes
Conditions: thapsigargin (2 µM) in calcium-free buffer to empty internal stores, then 2 mM calcium added back
Read-out: 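Fluo-4 signal in 384-well plates read on a FLIPR after thapsigargin (2 µM, calcium-free) store depletion and 2 mM calcium add-back; unnormalised mean endpoint per well; screen run twice, selected wells retested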
Reading the numbers: calcium signal and retest calcium signal: higher = more calcium entry after store depletion
Rule for the call: 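About 1500 genes called as lowering calcium entry, by varying amounts, judged against per-plate control wells with STIM1 as positive and Rho1 as negative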
Meaning of the calls: active = called as lowering calcium entry; inactive = not called
The screen tested about 20,000 reagents; shown is a random part of those with a known target gene and a result. Of all reagents, about 2,100 (10%) got an active call. 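Raw plate signals without normalisation; calls rest on control-based scores that were not deposited; replicate 2 separates called from uncalled poorly.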 A plus sign joins genes that one reagent is predicted to hit. No sequences are given here. The record does not give: the amount of reagent, the time to read-out.

CG8230 [DRSC05931] | calcium signal, replicate 1 = 64.6; calcium signal, replicate 2 = 120; activity call = active
Cpr50Cb [DRSC06975] | calcium signal, replicate 1 = 102; calcium signal, replicate 2 = 190; activity call = inactive
aub [DRSC03486] | calcium signal, replicate 1 = 77.2; calcium signal, replicate 2 = 135; activity call = inactive
CG30076 [DRSC05494] | calcium signal, replicate 1 = 77.8; calcium signal, replicate 2 = 92.4; activity call = inactive
Tg [DRSC03047] | calcium signal, replicate 1 = 123; calcium signal, replicate 2 = 111; activity call = inactive
bves [DRSC20520] | calcium signal, replicate 1 = 66.4; calcium signal, replicate 2 = 159; activity call = active
bves [DRSC20554] | calcium signal, replicate 1 = 76.7; calcium signal, replicate 2 = 148; activity call = active
bves [DRSC20555] | calcium signal, replicate 1 = 173; calcium signal, replicate 2 = 98.6; activity call = inactive
CG7778 [DRSC03067] | calcium signal, replicate 1 = 164; calcium signal, replicate 2 = 226; activity call = inactive
Spn31A [DRSC02780] | calcium signal, replicate 1 = 72.8; calcium signal, replicate 2 = 99.7; activity call = inactive
CG3984 [DRSC15530] | calcium signal, replicate 1 = 94.8; calcium signal, replicate 2 = 177; activity call = inactive
PIG-X [DRSC22721] | calcium signal, replicate 1 = 121; calcium signal, replicate 2 = 196; activity call = inactive
Cyp313a3 [DRSC16626] | calcium signal, replicate 1 = 61; calcium signal, replicate 2 = 83.8; activity call = active
CG13306 [DRSC09976] | calcium signal, replicate 1 = 114; calcium signal, replicate 2 = 93.7; activity call = inactive
CG9897 + asRNA:CR42742 [DRSC04595] | calcium signal, replicate 1 = 94.8; calcium signal, replicate 2 = 137; activity call = inactive
slf [DRSC00583] | calcium signal, replicate 1 = 194; calcium signal, replicate 2 = 111; activity call = inactive
CG42826 [DRSC10682] | calcium signal, replicate 1 = 100; calcium signal, replicate 2 = 78.9; activity call = inactive
CG18417 [DRSC10319] | calcium signal, replicate 1 = 75.7; calcium signal, replicate 2 = 64.8; activity call = inactive
CG7991 [DRSC08609] | calcium signal, replicate 1 = 64.1; calcium signal, replicate 2 = 93.4; activity call = inactive
CG31862 [DRSC01245] | calcium signal, replicate 1 = 210; calcium signal, replicate 2 = 90.8; activity call = inactive
mey [DRSC14468] | calcium signal, replicate 1 = 106; calcium signal, replicate 2 = 99.2; activity call = inactive
betaTry [DRSC07582] | calcium signal, replicate 1 = 119; calcium signal, replicate 2 = 192; retest calcium signal, replicate 1 = 10700; retest calcium signal, replicate 2 = 180; activity call = inactive
betaTry [DRSC22377] | calcium signal, replicate 1 = 67.9; calcium signal, replicate 2 = 186; activity call = inactive
CG6149 [DRSC10593] | calcium signal, replicate 1 = 117; calcium signal, replicate 2 = 77.2; activity call = inactive
Pp2A-29B [DRSC03400] | calcium signal, replicate 1 = 138; calcium signal, replicate 2 = 180; activity call = inactive
gammaSnap1 [DRSC04686] | calcium signal, replicate 1 = 174; calcium signal, replicate 2 = 92.4; activity call = inactive
Slip1 [DRSC17146] | calcium signal, replicate 1 = 114; calcium signal, replicate 2 = 136; activity call = inactive
Nepl11 [DRSC12333] | calcium signal, replicate 1 = 161; calcium signal, replicate 2 = 102; retest calcium signal, replicate 1 = 131; retest calcium signal, replicate 2 = 114; activity call = inactive

Reagents listed so far called active (4):
CG8230 [DRSC05931] | calcium signal, replicate 1 = 64.6; calcium signal, replicate 2 = 120; activity call = active
bves [DRSC20520] | calcium signal, replicate 1 = 66.4; calcium signal, replicate 2 = 159; activity call = active
bves [DRSC20554] | calcium signal, replicate 1 = 76.7; calcium signal, replicate 2 = 148; activity call = active
Cyp313a3 [DRSC16626] | calcium signal, replicate 1 = 61; calcium signal, replicate 2 = 83.8; activity call = active
